Consider 53 molecules from article PMC12040169 (PLOS Biology, 2025).

The list shows a part of the results.

This experiment relates to T1, CTL2-GFP (C. trachomatis L2/434/Bu, GFP-expressing).
T1 construct: L2/434/Bu, GFP-expressing
Set-up: species or system HeLa; Intracellular C. trachomatis growth in HeLa cells, bulk GFP fluorescence relative to DMSO. Conditions: bulk GFP, single well; 28.5 h, 10 µM; inhibitor.
For the molecule `O=C1NCCN1CCOc1nccnc1-c1ccsc1` [CBK106766], the “% of control remaining” value stood at 103.016%.
`O=S(=O)(Nc1nnn[nH]1)c1ccc(F)cc1` [CBK050473]: the “% of control remaining” value is recorded as 109.85%.
Take `COc1cccc(C(=O)NC[C@H]2CC[C@H](c3cc(C(N)=O)c4ccccc4n3)CC2)c1OC` [CBK285919]: the “% of control remaining” value worked out at 96.9273%.
`O=C(OCCC1SC(NC2CC3C=CC2C3)=NC1=O)c1ccc(Cl)c([N+](=O)[O-])c1` (centres unmarked) [CBK200060T]: the “% of control remaining” value stood at 49.7781%.
In the case of `Nc1nc(SCC(=O)NCc2ccco2)n[nH]1` [CBK266572], the “% of control remaining” value was determined as 145.373%.
As to `Cc1ccc(-c2csc(C3CN4CCCC4CO3)n2)s1` (centres unmarked) [CBK304113], the “% of control remaining” value was 81.3821%.
Consider `CC(=O)c1ccc(NC(=O)Nc2nnc(CCN3CCCC3)s2)cc1` [CBK174990], for which the “% of control remaining” value was determined as 92.0867%.
For `CC(=O)NC(c1ccccn1)C1CCN(Cc2cccc(F)c2)CC1` (centres unmarked) [CBK285461], the “% of control remaining” value was found to be 118.603%.
As to `CCCNC(=O)COc1ccc(CC)cc1` [CBK058199], the “% of control remaining” value is 101.815%.
As for `CS(=O)(=O)Nc1ccc2[nH]ccc2c1` [CBK062728], the “% of control remaining” value is listed as 108.614%.
With `OC1(c2cccnc2F)CCN(Cc2c(F)cccc2Cl)CC1` [CBK283148], the “% of control remaining” value was found to be 136.07%.
For `Fc1ccccc1CN(CCCn1ccnc1)Cc1cccnc1` [CBK283099], the “% of control remaining” value was 117.553%.
For `CC1CCN(Cc2nc3c(c(=O)n(C)c(=O)n3C)n2CCN2CCOCC2)CC1` [CBK269291] the value was 139.426%.
For the molecule `CCNC(=O)N1CCN(CCOC(c2ccc(F)cc2)c2ccc(F)cc2)CC1` [CBK024943C], the “% of control remaining” value is reported as 100%.
As to `COc1ccc(Nc2nc(-c3ccc(F)cc3)cs2)c(OC)c1` [CBK131705], the “% of control remaining” value stood at 105.596%.
Take `CN(c1ccccc1C(N)=O)S(=O)(=O)c1ccc(S(=O)(=O)C(F)F)cc1` [CBK298289]: the “% of control remaining” value came to 128.861%.
For the molecule `COc1cccc(C(=O)Nc2nc(-c3ccccc3)cs2)c1OC` [CBK287697], the “% of control remaining” value amounted to 114.171%.
For `CC(NC(=O)C1CC(=O)N(Cc2ccccn2)C1)c1ccc(F)cc1` (centres unmarked) [CBK304552] the value was 130.209%; for `CN(C)CCN1CCN(c2nc(-c3ccc4c(c3)OCO4)cnc2N)CC1` [CBK063495], 183.567%; for `CC(C)OC(=O)N1CCC(CNc2ncc(-c3ccc(S(C)(=O)=O)cc3)cn2)CC1` [CBK165367], 77.4363%.
For `CSc1nsc(NC(=O)Nc2ccccc2)n1` [CBK027286] the value was 63.1802%; for `O=C(COc1ccccc1O)NCCN1CCOCC1` [CBK262243C], 129.053%.
For the molecule `c1ccc2cc(-c3cncc(NCc4ccncc4)n3)ccc2c1` [CBK037899], the “% of control remaining” value is 77.0923%.
In the case of `O=C(NC1CCCN(c2cc(-c3ccncc3)n[nH]2)C1)c1ccsc1` (centres unmarked) [CBK288619], the “% of control remaining” value was 118.571%.
Consider `O=C(COc1ccccc1)N1CCCC1c1cccc(Cc2ccc(F)cc2)n1` (centres unmarked) [CBK286230], for which the “% of control remaining” value amounted to 111.179%.
In the case of `CC1(C)C2CCC1(CS(=O)(=O)N1CCC(C(N)=O)CC1)C(=O)C2` (centres unmarked) [CBK269499], the “% of control remaining” value was determined as 143.461%.
For `COc1cccc(C2(O)CCC3CN(C(C)=O)CC32)c1` (centres unmarked) [CBK283222], the “% of control remaining” value is reported as 117.672%.
For `Cc1noc(C)c1NC(=O)CN1CCOCC1` [CBK200381] the value was 64.8852%; for `c1coc(CNc2cncc(-c3cccs3)n2)c1` [CBK065630], 157.657%; for `O=C(NCc1ccccc1)c1ccc2[nH]nnc2c1` [CBK200368], 111.667%.
For `O=C(C1CCC1)N1C2CCC1CC(O)(c1ccc(F)cc1)C2` (centres unmarked) [CBK283547] the value was 107.531%; for `O=S(=O)(c1ccc(F)cc1F)n1ccc2c(N3CCNCC3)nccc21` [CBK059061C], 98.2239%.
As to `COc1cccc(NS(=O)(=O)c2cc(CC(=O)O)ccc2OC)c1` [CBK298333], the “% of control remaining” value was 172.112%.
On to `Cc1nnc(SCC(=O)Nc2nonc2C)s1` [CBK269227], for which the “% of control remaining” value was found to be 151.247%.
Turning to `Cc1ccc(NS(=O)(=O)c2ccc(OCC(=O)N3CCN(C)CC3)c(C)c2)cc1` [CBK267834], the “% of control remaining” value is listed as 86.6747%.
For `COC1C(O)C(CO)OC1n1cnc2c(=O)[nH]c(N)nc21` (centres unmarked) [CBK201324] the value was 157.463%.
Take `FC(F)(F)c1ccnc(Sc2ccncc2)c1` [CBK093793]: the “% of control remaining” value is given as 118.431%.
For `Cc1cccnc1C(NC(=O)C1CCN(Cc2cccn2C)CC1)c1ccc(Cl)cc1` (centres unmarked) [CBK148174] the value was 109.562%.
On to `COc1cc(OC)nc(C(NC(=O)C2CCN(Cc3nccs3)CC2)c2ccc(Cl)cc2)n1` (centres unmarked) [CBK148217], for which the “% of control remaining” value is on record as 184.553%.
With `CSCCC(NC(=O)NCCc1ccccc1)c1nnc2ccccn12` (centres unmarked) [CBK304417], the “% of control remaining” value is 134.69%.
For `CN1C(=O)C(C)(C)Oc2ccc(C(O)c3ccco3)cc21` (centres unmarked) [CBK284469] the value was 131.854%; for `CCSc1nnc(NC(=O)c2cnc(SC)nc2CC)s1` [CBK291250], 161.916%; for `CCc1nnc(N/N=C/c2cc(Cl)c(OCc3ccccc3F)c(OC)c2)n1N` [CBK278282C], 111.771%.
For `CN1C2CCC1CC(OC(=O)c1cccnc1)C2` (centres unmarked) [CBK026000] the value was 122.046%; for `CC(=O)Nc1cccc(C(=O)OCC(=O)N2CCCCC2C)c1` (centres unmarked) [CBK305868], 143.553%.
For `CCNC(=O)Nc1nc2cccnc2cc1-c1ccc(OC)c(C)c1` [CBK081241] the value was 100%; for `c1cnc(N2CCCC2)c(OC2CCCNC2)n1` (centres unmarked) [CBK115283], 134.966%.
Take `O=C(O)[C@@H]1CSC(c2ccc(C(F)(F)F)cc2)N1` (some centres unmarked) [CBK286921]: the “% of control remaining” value was determined as 127.247%.
For `COc1cccc(-c2cccc(C3CCCN(C(=O)Cc4c[nH]c5ccccc45)C3)n2)c1` (centres unmarked) [CBK286207] the value was 90.0619%; for `CCC(=O)N1CCC2(CC1)Nc1ccccc1-n1cccc12` [CBK283488], 90.7102%; for `Cc1ccc(S(=O)(=O)N2CCOCC2)cc1S(=O)(=O)N1CCOCC1` [CBK261733], 102.702%.
As for `O=C(Nc1ccc(F)cc1)c1sccc1NS(=O)(=O)c1cc(F)c(Br)cc1F` [CBK004586], the “% of control remaining” value came to 92.4438%.
For `Cn1nc2c(c1C(=O)NCC(C)(C)N1CCCCC1)CCCC2` [CBK281878], the “% of control remaining” value is given as 130.284%.
